Assay results published in paper doi:10.1101/2020.07.24.220525.
Positions count from the first letter of the chain named. Results are given in words; binding and its absence hold for the method and conditions named. Binding can be weak; no strength is given. Tags and fused reporters may be left off the sequences shown.

Tests used:
Assay in all cases: two-hybrid
[1] = biological target: T1, Mtg16 F210A fused to LexA DNA-binding domain (UniProt O54972)
T1 sequence: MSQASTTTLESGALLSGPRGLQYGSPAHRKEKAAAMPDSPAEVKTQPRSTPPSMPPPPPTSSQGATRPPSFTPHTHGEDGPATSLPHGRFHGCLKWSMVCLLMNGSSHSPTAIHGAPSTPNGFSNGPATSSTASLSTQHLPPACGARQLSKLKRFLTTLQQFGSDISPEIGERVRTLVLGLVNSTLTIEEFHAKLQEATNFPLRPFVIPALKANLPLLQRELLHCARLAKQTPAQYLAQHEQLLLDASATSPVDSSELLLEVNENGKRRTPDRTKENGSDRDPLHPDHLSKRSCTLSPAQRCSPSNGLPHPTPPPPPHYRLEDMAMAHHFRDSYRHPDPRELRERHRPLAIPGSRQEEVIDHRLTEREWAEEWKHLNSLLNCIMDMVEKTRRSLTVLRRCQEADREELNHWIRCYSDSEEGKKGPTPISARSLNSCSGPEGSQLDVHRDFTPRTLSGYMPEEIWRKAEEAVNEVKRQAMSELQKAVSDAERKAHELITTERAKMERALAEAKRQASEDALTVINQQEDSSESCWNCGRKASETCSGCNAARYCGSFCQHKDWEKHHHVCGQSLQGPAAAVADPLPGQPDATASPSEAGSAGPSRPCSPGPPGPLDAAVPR

[2] = biological target: T2, Mtg16 P209T fused to LexA DNA-binding domain (UniProt O54972)
T2 sequence: T1 sequence with P209T, A210F

[3] = biological target: T3, Mtg16 wild type fused to LexA DNA-binding domain (UniProt O54972)
T3 sequence: T1 sequence with A210F

Measured: binding

Zbtb38-Gal4-AD
binds: [1] | [2] | [3]
